Results on 1 molecule are retold here after article PMC6801678.

Protein sequences, listed by entry. Tags and fused reporters are not part of them. Lines headed by an entry give the natural chain unless they say otherwise; changes in a name come on top. Residues count along the entry.
UniProt Q8N4S9: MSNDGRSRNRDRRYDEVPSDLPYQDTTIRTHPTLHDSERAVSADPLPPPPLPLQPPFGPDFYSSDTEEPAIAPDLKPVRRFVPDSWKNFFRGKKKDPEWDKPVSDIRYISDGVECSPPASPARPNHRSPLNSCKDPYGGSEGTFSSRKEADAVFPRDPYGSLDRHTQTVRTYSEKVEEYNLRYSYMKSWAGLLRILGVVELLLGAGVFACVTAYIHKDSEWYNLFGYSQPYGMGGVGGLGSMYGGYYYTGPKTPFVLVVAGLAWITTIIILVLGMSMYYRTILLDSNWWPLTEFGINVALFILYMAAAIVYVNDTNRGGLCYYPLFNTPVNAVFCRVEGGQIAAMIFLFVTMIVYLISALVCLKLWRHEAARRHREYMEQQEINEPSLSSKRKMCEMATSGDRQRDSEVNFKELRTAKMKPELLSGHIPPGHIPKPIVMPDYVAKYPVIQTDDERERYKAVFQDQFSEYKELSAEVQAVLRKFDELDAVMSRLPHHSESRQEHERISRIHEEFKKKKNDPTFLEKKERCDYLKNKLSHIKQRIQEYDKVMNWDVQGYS
FLAG3-Tric∆487–558, tricellulin lacking amino acids 487–558: residues 1-486 of Q8N4S9
FLAG3-Tric∆441–558, tricellulin lacking amino acids 441–558: residues 1-440 of Q8N4S9

Assay in all cases: co-IP; HEK-293 cells co-transfected with FLAG3-tricellulin constructs and GFP-LSR, lysed 48 h after transfection in modified RIPA buffer; IP with anti-FLAG M2 and Protein A Sepharose at 4 °C; Western blot with anti-LSR and anti-FLAG
Experiment [1] deals with FLAG3-Tric∆441–558, tricellulin lacking amino acids 441–558 (human) (UniProt Q8N4S9).
In experiment [2] the target is FLAG3-Tric∆487–558, tricellulin lacking amino acids 487–558 (human) (UniProt Q8N4S9).
The target of experiment [3] is FLAG3-tagged human tricellulin, full length (human) (UniProt Q8N4S9).

No constants are given. Whether binding was seen depends on the method and setting. Binding seen in cells or lysates may run through a third protein. Some entries that bind do so weakly or less than the wild type. Sequences can lack the tags named with a protein.

B1: GFP-tagged lipolysis-stimulated lipoprotein receptor (LSR)/angulin-1 (protein, UniProt Q99KG5 36-594)
chain: AIQVTVPDPYHVVILFQPVTLHCTYQMSNTLTAPIVIWKYKSFCRDRVADAFSPASVDNQLNAQLAAGNPGYNPYVECQDSVRTVRVVATKQGNAVTLGDYYQGRRITITGNADLTFEQTAWGDSGVYYCSVVSAQDLDGNNEAYAELIVLGRTSEAPELLPGFRAGPLEDWLFVVVVCLASLLFFLLLGICWCQCCPHTCCCYVRCPCCPDKCCCPEALYAAGKAATSGVPSIYAPSIYTHLSPAKTPPPPPAMIPMRPPYGYPGDFDRTSSVGGHSSQVPLLREVDGSVSSEVRSGYRIQANQQDDSMRVLYYMEKELANFDPSRPGPPNGRVERAMSEVTSLHEDDWRSRPSRAPALTPIRDEEWNRHSPRSPRTWEQEPLQEQPRGGWGSGRPRARSVDALDDINRPGSTESGRSSPPSSGRRGRAYAPPRSRSRDDLYDPDDPRDLPHSRDPHYYDDLRSRDPRADPRSRQRSHDPRDAGFRSRDPQYDGRLLEEALKKKGAGERRRVYREEEEEEEEGHYPPAPPPYSETDSQASRERRMKKNLALSRESLVV
In the case of B1, the binding result in experiment [1] is on record as “no binding”; in experiment [2] it was “no binding”; in experiment [3], “binds”.
